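Luminescence from an EWS-FLI1 target-promoter (NR0B1) reporter, set against a CMV-promoter reporter, two days after silencing single genes in TC32 Ewing sarcoma cells. Each siRNA was applied at 20 nM. A z-score of the log NR0B1-over-CMV signal, less the median of siRNAs with the same seed; more negative means a stronger specific loss of the NR0B1 reporter.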

This is part of the screen; most of the strongest results are not listed here. Sequences are the guide (antisense) strand, without overhang.

Sequence	gene	seed-corrected z-score
AUUGGAAUAGAAGGACACC	CHRNB2	0.0365
AGAAUAGUGAGGUAUAAUC	TMEM161B	0.2353
UGCGUUUUUAUCAUCAGGG	WDR44	0.2325
UUAUUGUGAUAAUACGUCC	CDH5	0.08883
UUUGUCUUCGUUUCGAAUG	DNAJB1	-1.199
ACCUUAUUAACUGAUGUCC	CEBPZ	0.2691
UAUCUGAUUCAUACGCAGC	DIS3L2	-0.532
UAUCAGACAGGAACGAGGC	LRRC16A	0.118
UUUGCAUGAAGUGGAACUC	ADCK3	0.003388
ACCCUUACAACUUAUGUCG	NLRP2	-0.005184
GCAGUUCUGCGUCAGGUUG	GPIHBP1	-0.2867
UCUUCGCCCUUUUAAGUGC	ZFR	0.4664
UGUUCGGACAGUGAGUCCC	ZBTB42	0.0351
UCCGCUAAGAAGGUCAUGC	CEACAM20	0.06333
AGUUUAUUCACUAGAUCCC	EIF2B4	-1.961
UUUAUUAGUAUCCACACUG	PMVK	0.1234
UGUGGGAAGUAGGCGAUGU	ISOC2	-0.3344
UGCUGUAUCAGGAUUCGAU	IDI2	0.1656
UAAUGGUCAUGAUAAUCAC	OR10J3	0.7699
UAUCUAACUUUGUCAAUUC	SYNM	0.8858
UCCUGUACAGGAUUCCCUC	FBXO44	0.6205
AUGAGUUCCAGAUCUUCUC	CRAT	0.2978
UUUGCAAGAAGGCCUAAAC	VPS50	-0.5811
UACUGAUAGAGUUCGGUUG	JMY	-0.2464
AAAGCUUCAAGAAAUCUUC	CREB3L4	0.2886
UGUAUUAUGACCUCCUUUG	ZNF107	0.08207
AUAGGUCUCAUCAUGCUGC	TIMELESS	-0.9167
AUGGUUAUGAGGAUCAGAC	OR4K17	-1.063
UUCAUGGAACGGCCUAACU	SPDYE5	-0.007362
AUCUUGUUGACUGAUUUUC	NMUR2	-0.2694
UAUGUGGUAAGAUGCGAAC	FBXO22	-0.6634
UCUAAUAUUUCAGUGACUG	NUDT4	0.7723
UACGUGAUAACGAAUCACU	KRTAP13-2	0.1037
UCUUAUCCAAAGGUAAUCG	TNPO3	0.09702
UAUGAUUCCAUAGGUAAGG	SLC16A10	0.3776
AUCCUUGUGAACACGAUCC	PTPRQ	-1.239
UUUCCAUCAAUUGGUAUUG	ALDH1A1	-1.162
ACUGCUGUUGCAACUGUCC	PAIP2B	0.3806
UAGUGUACCAAAUUCAGCC	MAN1A2	0.4226
UUAGGUUCUGCUCCUAAGC	PPP1R9A	0.6938
UUUUCAACGACUACAAUUC	FAAP24	1.347
UUAACUACUGACAGUAUCC	KIAA0226L	0.5282
ACAGUGAUCACCACGAAGA	SLC46A1	0.03417
ACAGAUGAUAGAACUGUCC	FCRL6	-0.394
AUCGGUAUCCAGAAGAAGG	ABCA9	0.008746
UGCAUAAUCAAACCAGAUG	SEC61A2	0.01193
AUGCGUUUUACCUUUCUCC	GPATCH2	-0.1644
UCUUGGAAUCCGGGUAUGG	PRRG2	-0.1112
AACUUACUUCUUCACGUUC	EIF3A	0.3555
UUGGUGCAAACAUUCGGCC	RPL4	-0.2406
UUUCAUGCGAUCCAAGUGC	AHCYL1	-0.302
UCACUUUACAGAGACAUAU	SP5	-1.26
UCAGGACUAAGGCUACAUC	TOR1AIP1	0.9838
AAUGGAUAAAAGAACUUUA	UBE2D3	0.1048
UUUCGUAGAAUUGCUCUGG	KIAA0408	0.1557
UCAAAUCUAACAUAUGAGC	CARS2	0.3902
UACUGAAUUAGGAACUUCU	POP5	0.8083

Once more, the final 3:

* UUUCGUAGAAUUGCUCUGG against KIAA0408 | seed-corrected z-score 0.1557
* UCAAAUCUAACAUAUGAGC against CARS2 | seed-corrected z-score 0.3902
* UACUGAAUUAGGAACUUCU against POP5 | seed-corrected z-score 0.8083

The results are deposited in PubChem (AID1159506; NCATS, 2015).